The values below come from PMC9663503, “Independently evolved viral effectors convergently suppress DELLA protein SLR1-mediated broad-spectrum antiviral immunity in rice” (Nature Communications, 2022).

In assay [1] the target is T1, OsGID1-flag (rice (Oryza sativa)) (UniProt Q6L545).
T1 sequence: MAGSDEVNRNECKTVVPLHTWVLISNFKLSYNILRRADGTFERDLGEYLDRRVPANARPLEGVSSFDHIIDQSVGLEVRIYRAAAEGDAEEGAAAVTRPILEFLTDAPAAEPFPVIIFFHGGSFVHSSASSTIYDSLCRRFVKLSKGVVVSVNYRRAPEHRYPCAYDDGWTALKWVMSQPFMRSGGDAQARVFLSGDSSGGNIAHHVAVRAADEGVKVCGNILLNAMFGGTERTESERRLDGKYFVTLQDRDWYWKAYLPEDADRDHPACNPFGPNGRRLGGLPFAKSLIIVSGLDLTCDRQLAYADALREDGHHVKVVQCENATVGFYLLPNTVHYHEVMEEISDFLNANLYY
Briefly: co-IP; N. benthamiana leaves co-expressing the tagged proteins, harvested 48 hpi; IP buffer 25 mM Tris-HCl pH 7.4, 150 mM NaCl, 1% NP-40; Flag-trap beads 2 h at 4 °C; immunoblot. Background: Immunoblotting shows a protein as a band on a membrane.

Assay [2] has as its target T2, SLR1-flag (rice (Oryza sativa)) (UniProt Q7G7J6).
T2 sequence: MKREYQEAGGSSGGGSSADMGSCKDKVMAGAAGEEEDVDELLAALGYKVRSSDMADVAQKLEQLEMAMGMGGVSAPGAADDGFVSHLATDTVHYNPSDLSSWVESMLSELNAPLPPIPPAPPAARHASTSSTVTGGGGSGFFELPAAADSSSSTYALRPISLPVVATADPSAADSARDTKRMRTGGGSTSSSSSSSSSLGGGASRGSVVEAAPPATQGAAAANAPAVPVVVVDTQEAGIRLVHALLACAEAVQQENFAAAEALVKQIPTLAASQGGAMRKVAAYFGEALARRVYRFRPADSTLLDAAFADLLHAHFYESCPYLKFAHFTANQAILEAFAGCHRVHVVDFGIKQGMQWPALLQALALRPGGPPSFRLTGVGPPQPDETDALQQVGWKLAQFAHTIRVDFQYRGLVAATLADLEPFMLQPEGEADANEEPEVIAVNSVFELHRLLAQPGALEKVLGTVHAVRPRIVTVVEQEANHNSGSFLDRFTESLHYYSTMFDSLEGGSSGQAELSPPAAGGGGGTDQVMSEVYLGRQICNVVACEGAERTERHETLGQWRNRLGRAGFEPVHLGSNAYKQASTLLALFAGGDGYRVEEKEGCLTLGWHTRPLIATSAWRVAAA
Described as above.

For assay [3], the target named is T2, SLR1-flag (rice (Oryza sativa)). Briefly: co-IP; competitive co-IP in N. benthamiana leaves; a third protein (SP8, P2 or SLR1) co-infiltrated at OD600 0.5 or 1.0; 50 µM MG132 at 24 hpi (Fig. 3e, f, 6a-d); Flag-tag or HA-tag paramagnetic beads.
Assay [4] deals with T3, SLR1 (expressed in N. benthamiana; tag not stated) (rice (Oryza sativa)) (UniProt Q7G7J6).
T3 sequence: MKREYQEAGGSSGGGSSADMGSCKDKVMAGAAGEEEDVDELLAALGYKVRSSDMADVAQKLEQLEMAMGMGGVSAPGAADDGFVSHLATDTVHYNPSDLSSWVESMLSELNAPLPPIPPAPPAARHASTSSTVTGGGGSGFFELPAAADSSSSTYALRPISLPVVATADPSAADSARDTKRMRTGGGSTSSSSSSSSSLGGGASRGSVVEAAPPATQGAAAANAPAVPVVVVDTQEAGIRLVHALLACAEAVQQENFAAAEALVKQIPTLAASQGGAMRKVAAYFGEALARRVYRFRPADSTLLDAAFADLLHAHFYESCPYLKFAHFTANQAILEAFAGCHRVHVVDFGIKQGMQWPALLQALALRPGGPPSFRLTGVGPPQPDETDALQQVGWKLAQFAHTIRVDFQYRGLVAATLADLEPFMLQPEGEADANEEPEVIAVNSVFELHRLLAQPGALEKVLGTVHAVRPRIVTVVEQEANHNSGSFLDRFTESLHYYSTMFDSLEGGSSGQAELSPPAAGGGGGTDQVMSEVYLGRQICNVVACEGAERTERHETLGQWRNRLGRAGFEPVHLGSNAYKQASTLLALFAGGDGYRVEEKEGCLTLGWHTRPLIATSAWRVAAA
Briefly: co-IP; N. benthamiana leaves co-expressing the tagged proteins, harvested 48 hpi; IP buffer 25 mM Tris-HCl pH 7.4, 150 mM NaCl, 1% NP-40; Flag-trap beads 2 h at 4 °C; immunoblot.

Assay [5] deals with T4, SLR1 (BiFC fusion used with OsJAZ proteins; YFP half not stated) (rice (Oryza sativa)) (UniProt Q7G7J6).
T4 sequence: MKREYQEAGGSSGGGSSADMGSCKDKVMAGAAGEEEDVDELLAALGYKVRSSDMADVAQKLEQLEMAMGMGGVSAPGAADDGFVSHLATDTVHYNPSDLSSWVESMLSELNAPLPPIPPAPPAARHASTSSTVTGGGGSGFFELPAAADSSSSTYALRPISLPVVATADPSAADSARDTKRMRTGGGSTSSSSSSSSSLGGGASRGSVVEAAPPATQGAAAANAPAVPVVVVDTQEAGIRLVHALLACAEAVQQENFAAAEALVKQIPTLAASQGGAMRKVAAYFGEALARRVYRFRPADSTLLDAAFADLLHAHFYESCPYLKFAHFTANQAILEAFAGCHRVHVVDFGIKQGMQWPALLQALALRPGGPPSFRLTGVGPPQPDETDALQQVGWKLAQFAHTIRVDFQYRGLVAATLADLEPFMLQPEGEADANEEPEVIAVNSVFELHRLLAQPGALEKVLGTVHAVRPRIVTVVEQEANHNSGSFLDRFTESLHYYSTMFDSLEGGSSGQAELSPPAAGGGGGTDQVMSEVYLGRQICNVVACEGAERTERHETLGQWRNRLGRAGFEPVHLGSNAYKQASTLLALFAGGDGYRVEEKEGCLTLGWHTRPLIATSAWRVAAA
Briefly: split reporter; BiFC; cYFP and nYFP fusions agro-infiltrated into N. benthamiana leaves, confocal microscopy at 48 h.

Assay [6] concerns the target OsJAZ3 (yeast two-hybrid fusion) (rice (Oryza sativa)). Briefly: two-hybrid; pairwise co-transformation into yeast AH109; growth on SD/-Leu/-Trp/-His/-Ade plates at 30 °C, 3 days; viral proteins on BD, SLR1 and its derivatives on AD.
For assay [7], the target named is BD-RBSDV P8 (Rice black-streaked dwarf virus (RBSDV)). The description is as above.
Assay [8] addresses OsJAZ12 (yeast two-hybrid fusion) (rice (Oryza sativa)). The assay is described as above.
Assay [9] deals with OsJAZ4 (yeast two-hybrid fusion) (rice (Oryza sativa)). The assay is described as above.
Assay [10] addresses OsJAZ9 (yeast two-hybrid fusion) (rice (Oryza sativa)). Described as above.
Assay [11] concerns the target BD-RSMV M (Rice stripe mosaic virus (RSMV)). The assay is described as above.
In assay [12] the target is BD-RSV P2 (Rice stripe virus (RSV)). Described as above.
Assay [13] has as its target BD-SP8 (Southern rice black-streaked dwarf virus (SRBSDV)). The description is as above.
Assay [14] has as its target GST-P2 (Rice stripe virus (RSV)). Briefly: pull-down; GST fusion or GST on GST beads with or without 100 µM GA3, 4 °C 1 h; MBP-His-OsGID1 added for 2 h; anti-His blot; both purified.
Assay [15] addresses GST-SP8 (Southern rice black-streaked dwarf virus (SRBSDV)). Described as above.

No constants are given. Whether binding was seen depends on the method and setting. Binding calls can cover weak binding; strength is not graded here. Where a sequence is shown, tags or fusion partners need not be part of it. For some assays here: Binding seen in cells or lysates may run through a third protein.

For SP8-myc, the binding entry in assay [1] and in assay [2] was “binds” throughout.

As for OsJAZ9-HA (rice (Oryza sativa)), the binding result in assay [3] and in assay [4] was “binds” in each case.

For the molecule P2-myc (Rice stripe virus (RSV)), the binding result in [1] and in assay [2] was “binds” in each case.

For the molecule “OsJAZ12 (BiFC fusion; YFP half not stated) (rice (Oryza sativa))”, the binding result in [5] is recorded as “binds”.

B1: AD-SLR1 (protein, UniProt Q7G7J6 1-625)
chain: MKREYQEAGGSSGGGSSADMGSCKDKVMAGAAGEEEDVDELLAALGYKVRSSDMADVAQKLEQLEMAMGMGGVSAPGAADDGFVSHLATDTVHYNPSDLSSWVESMLSELNAPLPPIPPAPPAARHASTSSTVTGGGGSGFFELPAAADSSSSTYALRPISLPVVATADPSAADSARDTKRMRTGGGSTSSSSSSSSSLGGGASRGSVVEAAPPATQGAAAANAPAVPVVVVDTQEAGIRLVHALLACAEAVQQENFAAAEALVKQIPTLAASQGGAMRKVAAYFGEALARRVYRFRPADSTLLDAAFADLLHAHFYESCPYLKFAHFTANQAILEAFAGCHRVHVVDFGIKQGMQWPALLQALALRPGGPPSFRLTGVGPPQPDETDALQQVGWKLAQFAHTIRVDFQYRGLVAATLADLEPFMLQPEGEADANEEPEVIAVNSVFELHRLLAQPGALEKVLGTVHAVRPRIVTVVEQEANHNSGSFLDRFTESLHYYSTMFDSLEGGSSGQAELSPPAAGGGGGTDQVMSEVYLGRQICNVVACEGAERTERHETLGQWRNRLGRAGFEPVHLGSNAYKQASTLLALFAGGDGYRVEEKEGCLTLGWHTRPLIATSAWRVAAA
On to B1, for which the binding entry in assay [6], in assay [7], in assay [8], in assay [9], in assay [10] and in assay [11] was “binds” each time. Besides, the binding result in assay [12] and in assay [13] was “binds” in each case.

B2: SLR1 region containing the GRAS element (AD fusion) (domain or fragment, UniProt Q7G7J6 232-621)
chain: VDTQEAGIRLVHALLACAEAVQQENFAAAEALVKQIPTLAASQGGAMRKVAAYFGEALARRVYRFRPADSTLLDAAFADLLHAHFYESCPYLKFAHFTANQAILEAFAGCHRVHVVDFGIKQGMQWPALLQALALRPGGPPSFRLTGVGPPQPDETDALQQVGWKLAQFAHTIRVDFQYRGLVAATLADLEPFMLQPEGEADANEEPEVIAVNSVFELHRLLAQPGALEKVLGTVHAVRPRIVTVVEQEANHNSGSFLDRFTESLHYYSTMFDSLEGGSSGQAELSPPAAGGGGGTDQVMSEVYLGRQICNVVACEGAERTERHETLGQWRNRLGRAGFEPVHLGSNAYKQASTLLALFAGGDGYRVEEKEGCLTLGWHTRPLIATSAWR
With B2, the binding result in [7], in [11], in assay [12] and in assay [13] was “binds” in each case.

B3: OsGID1 (yeast two-hybrid fusion) (receptor, UniProt Q6L545 1-354)
chain: MAGSDEVNRNECKTVVPLHTWVLISNFKLSYNILRRADGTFERDLGEYLDRRVPANARPLEGVSSFDHIIDQSVGLEVRIYRAAAEGDAEEGAAAVTRPILEFLTDAPAAEPFPVIIFFHGGSFVHSSASSTIYDSLCRRFVKLSKGVVVSVNYRRAPEHRYPCAYDDGWTALKWVMSQPFMRSGGDAQARVFLSGDSSGGNIAHHVAVRAADEGVKVCGNILLNAMFGGTERTESERRLDGKYFVTLQDRDWYWKAYLPEDADRDHPACNPFGPNGRRLGGLPFAKSLIIVSGLDLTCDRQLAYADALREDGHHVKVVQCENATVGFYLLPNTVHYHEVMEEISDFLNANLYY
On to B3, for which the binding entry in assay [12] and in [13] was “binds” in each case.

B4: MBP-His-OsGID1 (receptor)
chain: MAGSDEVNRNECKTVVPLHTWVLISNFKLSYNILRRADGTFERDLGEYLDRRVPANARPLEGVSSFDHIIDQSVGLEVRIYRAAAEGDAEEGAAAVTRPILEFLTDAPAAEPFPVIIFFHGGSFVHSSASSTIYDSLCRRFVKLSKGVVVSVNYRRAPEHRYPCAYDDGWTALKWVMSQPFMRSGGDAQARVFLSGDSSGGNIAHHVAVRAADEGVKVCGNILLNAMFGGTERTESERRLDGKYFVTLQDRDWYWKAYLPEDADRDHPACNPFGPNGRRLGGLPFAKSLIIVSGLDLTCDRQLAYADALREDGHHVKVVQCENATVGFYLLPNTVHYHEVMEEISDFLNANLYY
notes: OsGID1, the rice gibberellin receptor GIBBERELLIN … DWARF1; also called PET32a-MBP-His-OsGID1; source: E. coli Rosetta (DE3), purified (Ni-NTA His-trap column)
In the case of B4, the binding result in [14] and in assay [15] was “binds” in each case.
